No constants are given. Whether binding was seen depends on the method and setting. Some entries that bind do so weakly or less than the wild type.

Experimental findings from publication PMC7515710 are described below.

For this assay, the target named is T1, Mmp-RpoD (subunit D of the archaeal RNA polymerase of M. maripaludis) (Methanococcus maripaludis S2 (endogenous in M. maripaludis S2)) (UniProt Q6LXM8).
T1 sequence: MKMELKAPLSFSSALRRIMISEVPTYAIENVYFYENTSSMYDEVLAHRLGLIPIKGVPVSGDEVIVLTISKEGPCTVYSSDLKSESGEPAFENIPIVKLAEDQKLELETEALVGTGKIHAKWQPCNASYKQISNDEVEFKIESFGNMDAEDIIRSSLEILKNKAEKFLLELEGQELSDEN
The assay is described as follows: SEC; S2 cell extract (lysis buffer 50 mM Tris-HCl pH 7.5, 150 mM NaCl, 0.05% NP-40, 10% glycerol), with or without RNase A treatment at 37°C for 30 min, 500 μg fractionated on Superdex 200 10/300 GL; fractions western blotted. (In general: Size exclusion chromatography separates by hydrodynamic size, large species first.)

B1: Mmp-aCPSF1 (archaeal ribonuclease aCPSF1 of Methanococcus maripaludis) (enzyme, UniProt Q6LZD5 1-635)
chain: MSAEDILNEIKAAVINKAPGNAVITDVEFEGSEVVIYAKNPELFSNNLIKEFARDFRKRLAIRPDPSVLVEPDIAKDKILKIVPEDAEITNCIFDANTGEVIIESKKPGLVIGKEGSTLEDIKKAIQWAPKPVRTPPIPSDTIKAIRATMYRERADVKDILRRIGRRIHRDVRLRDDSWVRTSFLGGSREVGRTCLYHQTPESRILVDCGINIAVEDEKAFPHFDAPEFSIEEIDAVVVTHAHLDHCGFIPGLFRYGYDGPVYCTKPTRDLMTLLQKDYVDITEKEGKNVPYSSKDIKNCIKHTIPLDYGVTTDIAPAIKLTMHNAGHILGSAIAHCHVGDGLYNVAYTGDIKFEASRLLEPAVCQFPRLETLIIESTYGGYDDVLPERDETEKEFLRVIAETIARKGKAIIPVFGIGRAQELMLVLEEGYNQGIFNAPVYLDGMIWEATAIHTAYPEYLSKNMRNRIFHEGDNPFLSEVFKKVKNTNDRRNIMDSDEPGIILTTSGMLSGGPSVEYFKNLADDEKNSIVFVGYQSEGTLGRKIQKGFKEIPLMGKNGRSKAVKVNLSVHTLEGFSGHSDRKQLIKYLRKLKPIPDRILTVHGEVSKCIDLASTAYKLFKKETKAPMNLDSIRLR
As for B1, the binding result is recorded as “binds”.
